Assay results reported in publication PMC3459904, “Inhibition of HIV-1 Infection by Human α-Defensin-5, a Natural Antimicrobial Peptide Expressed in the Genital and Intestinal Mucosae” (PLoS ONE, 2012).

Biological target: recombinant HIV-1 gp120 from isolate BaL (HIV-1 isolate BaL)
Experiment: ELISA; competition: HD5 at 5.6 µM added before a panel of anti-gp120 mAbs (5 µg/ml each) on plastic-immobilised gp120BaL (coated at 2 µg/mL); for 17b and 48d the gp120 was preincubated with sCD4; both purified

Binder: ATCYCRTGRCATRESLSGVCEISGRLYRLCCR (peptide, UniProt Q01523 63-94) [human α-defensin-5]
- binding: binds

No constants are given. Whether binding was seen depends on the method and setting. Binding calls can cover weak binding; strength is not graded here.
